This note sets out measurements from PMC11321683.

Amino acid sequences for entries named in this document (tags omitted).
UniProt D9ZJE9, entry or part of it: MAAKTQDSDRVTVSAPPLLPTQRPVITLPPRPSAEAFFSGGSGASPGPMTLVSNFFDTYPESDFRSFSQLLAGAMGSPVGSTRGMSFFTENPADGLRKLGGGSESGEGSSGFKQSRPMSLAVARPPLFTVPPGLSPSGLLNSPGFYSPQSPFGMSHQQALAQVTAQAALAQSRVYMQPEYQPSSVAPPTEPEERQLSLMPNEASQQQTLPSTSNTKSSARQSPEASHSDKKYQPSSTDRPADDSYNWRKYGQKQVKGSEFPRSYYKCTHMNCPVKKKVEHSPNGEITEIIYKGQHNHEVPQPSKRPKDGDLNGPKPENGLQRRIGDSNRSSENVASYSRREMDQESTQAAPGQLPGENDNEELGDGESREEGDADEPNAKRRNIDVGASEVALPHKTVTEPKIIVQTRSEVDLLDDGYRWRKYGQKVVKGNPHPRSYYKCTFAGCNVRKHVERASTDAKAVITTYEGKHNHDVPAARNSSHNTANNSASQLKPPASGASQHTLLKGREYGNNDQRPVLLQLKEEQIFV

No signal at the amounts used counts as a negative. At least one verdict was read from the data and is not stated in words by the source. For at least one entry, the source does not settle the construct or the ends of the probe.

The data set concerns the target MdWRKY10 (Malus domestica) (UniProt D9ZJE9). The data set can be described thus: EMSA. To be noted: EMSA with LightShift chemiluminescent kit (Thermo) per manufacturer; pH and temperature not stated; recombinant protein; protein details: His (pET-32a(+) vector); label: 3' biotin. (In general: In EMSA bound probe runs differently from free probe, usually more slowly.)
“ACCACATTTTTACACTAAAACCAACGTCCTGGTACTATTCACTTTA / TAAAGTGAATAGTACCAGGATTTCCTTTTTAGTGTAAAAATGTGGT [proR-InD (mP)]”: the binding result is “no binding”.

Turning to “ATATAAGATGTTAATATAACTTGACCGTGACTATTCAAATAGGAGG (double strand) [proMdMYB10 W1]”, the binding result is listed as “no binding”.

Take “GCGTGTCAATCTGCATAACGTGTCAAAATGGGTTACCTGCGTGTCA (double strand) [proMdUFGT W4]”: the binding result is reported as “no binding”.

For “TTAATATTAAGAATGCACGTTTGACAAAAAAAATATTAAAATGCAC (double strand) [proMdF3'5'H W1]”, the binding result was “no binding”.
